The text below walks through data of paper PMC12040169 (PLOS Biology, 2025).

The other results are listed elsewhere or left out.

The experiment has as its system T1, CTL2-GFP (C. trachomatis L2/434/Bu, GFP-expressing).
T1 construct: L2/434/Bu, GFP-expressing
Details: species or system HeLa; Intracellular C. trachomatis growth in HeLa cells, bulk GFP fluorescence relative to DMSO. The following applies: bulk GFP, single well; 28.5 h, 10 µM; inhibitor.
Turning to `O=c1[nH]ccn1CCNc1cc(-c2ccccc2Oc2ccccc2)ncn1` [CBK036966], the “% of control remaining” value was determined as 122.303%.
Then `COc1ccccc1N1CCN(CC2CN(c3ccccc3)c3ccccc3O2)CC1` (stereo not drawn) [CBK066872C], with 80.7616%; and `Nc1nc(OCc2ccccc2)cnc1-c1cccc(C(F)(F)F)c1` [CBK145179], with 100%; and `CCOc1ccccc1C(=O)Nc1cnc(-c2cccc(C)c2)c(-c2ccc(N)cc2)n1` [CBK036783], with 163.82%.
Consider `Cc1ccc2nc(-c3ccc4c(c3)CCN4S(C)(=O)=O)cn2c1` [CBK285185], for which the “% of control remaining” value turned out to be 140.627%.
The result for `CSc1cccc(C(=O)Nc2sc3c(c2C#N)CCN(C(C)=O)C3)c1` [CBK304390] reads 131.406%.
For the molecule `COc1ccc(Cl)cc1NS(=O)(=O)N(C)C` [CBK025794], the “% of control remaining” value was found to be 136.429%.
The result for `N#Cc1ccc(CNC(=O)N2CCN(Cc3ccccc3)CC2)cc1` [CBK155637] reads 126.009%.
The result for `CC(=O)Nc1ccc(-c2csc(Nc3ccc(S(=O)(=O)Nc4nc(C)cc(C)n4)cc3)n2)cc1` [CBK267295] reads 101.457%; that for `CC(C)(C)OC(=O)N1CCN(Cc2nnc(Cc3ccccc3)o2)CC1` [CBK306223], 96.3418%.
Take `Cn1cc(CNC(=O)Nc2cccc(CN3CCCCC3=O)c2)cn1` [CBK305062]: the “% of control remaining” value was 117.167%.
Then `CCCSc1ccc2[nH]c(NC(=O)CSc3nc[nH]n3)nc2c1` [CBK270181], with 99.4437%; and `O=C(O)c1cccc(-n2c(S)nnc2-c2ccncc2)c1` [CBK269260], with 125.142%; and `Cc1nc(NS(=O)(=O)Cc2ccccc2)sc1C(=O)O` [CBK045552], with 102.146%.
The result for `Cc1ccc(C2(O)CCN(CCNC(=O)C3CCCC3)CC2)cc1` [CBK282606] reads 128.57%; that for `CCS(=O)(=O)N1CCc2cc(C(=O)CSc3nnc(-c4ccco4)o3)ccc21` [CBK297126], 144.891%.
Take `Clc1cncc(-c2ccccc2)n1` [CBK113371]: the “% of control remaining” value was found to be 152.043%.
As to `CS(=O)(=O)Nc1cccc(-c2cnc3[nH]c(=O)n(Cc4cccs4)c3n2)c1` [CBK064708], the “% of control remaining” value is on record as 187.72%.
For `Nc1ncc(-c2ccccc2)nc1-c1ccc(O)cc1` [CBK064030], the “% of control remaining” value stood at 124.332%.
As to `CCOc1cc(NC2CCN(C(=O)Cc3cc(C)on3)CC2)ncn1` [CBK304689], the “% of control remaining” value turned out to be 91.534%.
In the case of `Cc1cccc(Cn2cnc(NC(=O)Nc3cccc(Cl)c3C)n2)c1` [CBK266876], the “% of control remaining” value is 116.665%.
The result for `Nc1ccc2ccc(-c3cccc(C(F)(F)F)c3)nc2n1` [CBK067629] reads 167.113%.
The result for `OC(COCc1ccccc1)CN1CCN(c2ccccc2F)CC1` (stereo not drawn) [CBK074851C] reads 134.468%; that for `COc1ccc(C(=O)Nc2ccccc2-c2nc3ccccc3s2)cc1OC` [CBK266376], 215.655%.
As for `CCNc1cc(-c2ccc(N3CCOCC3)cc2)ncn1` [CBK090876], the “% of control remaining” value was determined as 98.826%.
Then `Cc1nc(C2CCN(C(=O)c3ccncc3)CC2)c2sccn12` [CBK282235], with 121.191%; and `Nc1cccc(-c2cncc(N(CCO)CCO)n2)c1` [CBK065808], with 205.169%.
Then `OCCN1CC2(CCN(Cc3c(F)cccc3F)CC2)c2ccccc21` [CBK137010], with 114.176%.
The result for `COC1C(O)=CC(=O)OC1(CCc1ccco1)CCc1ccco1` (stereo not drawn) [CBK001858] reads 151.763%; that for `CC1=C[C@@H](CNC(=O)Nc2ccccc2)[C@H](C(C)C)C[C@H]1CC(=O)N1CCN(C)CC1` [CBK289048], 121.75%; that for `O=S(=O)(O)c1cc(S(=O)(=O)O)c2cc(O)c(S(=O)(=O)O)cc2c1` [CBK278319N], 103.173%.
Consider `O=C(NC(=S)Nc1cccc(-c2nc3ncccc3o2)c1)c1ccc(-c2cccc([N+](=O)[O-])c2)o1` [CBK267870], for which the “% of control remaining” value is 153.369%.
Consider `Cc1cc2nccc([C@H]3CC[C@H](CNC(=O)C(C)C)CC3)n2n1` [CBK283475], for which the “% of control remaining” value is listed as 117.731%.
Regarding `Cc1ccc(NC(=O)CN2C(=O)S/C(=C\c3cc(C)n(-c4cccc(C(=O)O)c4)c3C)C2=O)cc1` [CBK264725], the “% of control remaining” value stood at 100%.
`Cc1ncsc1C(=O)N1CCC(c2cccc(Cc3ccccc3Cl)n2)CC1` [CBK286146]: the “% of control remaining” value worked out at 101.213%.
Regarding `O=C(O)CCC(=O)NNC(=O)c1cccc(O)c1` [CBK262116], the “% of control remaining” value is on record as 100%.
Then `COc1cc2c(cc1OC)CN(C(=O)c1cncnc1)CC2` [CBK122748], with 121.59%; and `CSCCC(=O)NCCc1c[nH]c2ccc(Cl)cc12` [CBK159775], with 178.039%.
For `Cc1cc(/C=C2/C(=N)N3N=C(Cc4ccccc4)SC3=NC2=O)c(C)n1-c1ccccc1` [CBK264318], the “% of control remaining” value was found to be 136.472%.
